# Data reported in PubChem BioAssay AID330 (DTP/NCI, 2004).
# The list shows only some results of the screen, not a fair sample: it gathers tests that were run many times, whatever their T/C, doses with no T/C, and many T/C values between a quarter and a half above the control. Other doses and runs of a compound stand elsewhere. T/C: endpoint of the treated group in % of that of the vehicle group. Some entries give survivors of the animals treated and no T/C: the source holds a T/C of zero for them, seemingly a mark for toxic or unscored doses. Some survivor counts are full or nearly so, which does not show that the dose was tolerated: survival well below the control is almost never listed, so the zero probably covers shortened survival too. Survivors were counted at the toxicity check, usually on the fifth day, unless a day is given; later deaths do not show. Schedules are NCI's codes, taken here to give the interval after Q, in days (D) or hours (H), and the number of doses after X. Some doses were run more than once; the values are given in rising order. Some structures stand for samples that the source files as different forms (salt, stereo form or complex); doses refer to the form tested. For survival time, this PubChem deposit counts one and a half times the control or more as active, and values a quarter to a half above the control carry no call in these data; other NCI protocols may use other cut-offs.
# System: P388 leukemia ip, CD2F1 mice, survival T/C
# Assay: NCI In Vivo Anticancer Drug Screen. Data for tumor model P388 Leukemia (intraperitoneal) in CD2F1 (CDF1) mice
# Details: T/C endpoint: median survival time, higher T/C = longer survival
# [1] = dose: 200.0 mg/kg/injection, schedule: Q04DX003 (ip), vehicle: saline with Tween-80
# [2] = dose: 100.0 mg/kg/injection, schedule: Q01DX009 (ip), vehicle: Klucel (hydroxypropylcellulose) (HPC)
# [3] = dose: 400.0 mg/kg/injection, schedule: Q04DX003 (ip), vehicle: Klucel (hydroxypropylcellulose) (HPC)
# [4] = dose: 60.0 mg/kg/injection, schedule: Q01DX005 (ip), vehicle: saline with Tween-80
# [5] = dose: 120.0 mg/kg/injection, schedule: Q01DX005 (ip), vehicle: saline with Tween-80
# [6] = dose: 240.0 mg/kg/injection, schedule: Q01DX005 (ip), vehicle: saline with Tween-80
# [7] = dose: 200.0 mg/kg/injection, schedule: Q01DX005 (ip), vehicle: saline
# [8] = dose: 200.0 mg/kg/injection, schedule: Q01DX009 (ip), vehicle: saline
# [9] = dose: 12.5 mg/kg/injection, schedule: Q01DX009 (ip), vehicle: water
compound,measurement,setting,value
CC(C)(C)OC(=O)C(N)C(F)C(=O)OC(C)(C)C (stereo unspecified),survivor count,[1],6 of 6
CSCCC(NP(=S)(c1ccccc1)c1ccccc1)C(=O)O (stereo unspecified),survivor count,[2],6 of 6
CSc1nn(CCC#N)c(=O)[nH]c1=O,survivor count,"dose: 200.0 mg/kg/injection, schedule: Q01DX005 (ip), vehicle: water",3 of 6
COC1OC(=O)C(Cl)=C1N=[N+]=[N-] (stereo unspecified),survivor count,"dose: 60.0 mg/kg/injection, schedule: Q01DX005 (ip), vehicle: Klucel (hydroxypropylcellulose) (HPC)",0 of 6
same,survivor count,"dose: 120.0 mg/kg/injection, schedule: Q01DX005 (ip), vehicle: Klucel (hydroxypropylcellulose) (HPC)",0 of 6
same,survivor count,"dose: 240.0 mg/kg/injection, schedule: Q01DX005 (ip), vehicle: Klucel (hydroxypropylcellulose) (HPC)",0 of 6
CN1C(=O)CC([Se]c2ccccc2)C1=O (stereo unspecified),survivor count,"dose: 100.0 mg/kg/injection, schedule: Q04DX003 (ip), vehicle: Klucel (hydroxypropylcellulose) (HPC)",2 of 6
same,survivor count,"dose: 200.0 mg/kg/injection, schedule: Q04DX003 (ip), vehicle: Klucel (hydroxypropylcellulose) (HPC)",0 of 6 and 3 of 6
same,survivor count,[3],0 of 6
O=c1c2c(oc3ccccc13)Oc1oc3ccccc3c(=O)c1C2c1ccc2c(c1)OCO2,survivor count,[4],6 of 6
same,survivor count,[5],6 of 6
same,survivor count,[6],6 of 6
O=C(Nc1cccc2c(OC(=O)C(Cl)Cl)c(N=Nc3ccc(S(=O)(=O)Nc4nccs4)cc3)cc(N=Nc3ccc(S(=O)(=O)Nc4nccs4)cc3)c12)C(Cl)Cl,survivor count,"dose: 200.0 mg/kg/injection, schedule: Q01DX009 (ip), vehicle: saline with Tween-80",2 of 6 and 3 of 6
O=c1[nH]c2ccc(Cl)cc2c2ccccc12,survivor count,"dose: 400.0 mg/kg/injection, schedule: Q01DX009 (ip), vehicle: Klucel (hydroxypropylcellulose) (HPC)",4 of 6
COc1cc(NCCN(CC(C)C)C2CCCC2)c2ncccc2c1,survivor count,[7],0 of 5
CC1(C)COC(c2ccc(Br)cc2)=N1,survivor count,"dose: 400.0 mg/kg/injection, schedule: Q01DX009 (ip), vehicle: other",2 of 6
C(=C\c1cc2cc(C3=NCCN3)ccc2[nH]1)/c1ccc(C2=NCCN2)cc1,T/C,"dose: 25.0 mg/kg/injection, schedule: Q04DX003 (ip), vehicle: saline",127 and 132 % of control
same,survivor count,"dose: 100.0 mg/kg/injection, schedule: Q04DX003 (ip), vehicle: saline",3 of 6
same,survivor count,"dose: 200.0 mg/kg/injection, schedule: Q04DX003 (ip), vehicle: saline",0 of 6
same,survivor count,"dose: 400.0 mg/kg/injection, schedule: Q04DX003 (ip), vehicle: saline",0 of 6
CCN(CC)CCCNc1c(OC)cc(C)c2sc3ccccc3c(=O)c12,survivor count,"dose: 100.0 mg/kg/injection, schedule: Q01DX009 (ip), vehicle: saline",3 of 6
same,survivor count,[8],0 of 6
COc1cc2c(c(OC)c1OC)-c1ccc(SC)c(=O)cc1C(NC(=O)COP(=O)(O)OCC(=O)NC1CCc3cc(OC)c(OC)c(OC)c3-c3ccc(SC)c(=O)cc31)CC2 (stereo unspecified),T/C,"dose: 1.56 mg/kg/injection, schedule: Q01DX009 (ip), vehicle: water",125 and 133 % of control
same,T/C,"dose: 3.13 mg/kg/injection, schedule: Q01DX009 (ip), vehicle: water","127, 129, 147 % of control"
same,T/C,"dose: 6.25 mg/kg/injection, schedule: Q01DX009 (ip), vehicle: water",136 and 143 % of control
same,T/C,[9],157 and 198 % of control
same,survivor count,[9],6 of 6
same,survivor count,"dose: 25.0 mg/kg/injection, schedule: Q01DX009 (ip), vehicle: water",2 of 6 and 5 of 6
same,survivor count,"dose: 50.0 mg/kg/injection, schedule: Q01DX009 (ip), vehicle: water",0 of 6 and 1 of 6
same,survivor count,"dose: 100.0 mg/kg/injection, schedule: Q01DX009 (ip), vehicle: water",0 of 6
same,survivor count,"dose: 200.0 mg/kg/injection, schedule: Q01DX009 (ip), vehicle: water",0 of 6
CCCCN(CCCC)C(=N)c1ccnc2ccccc12,survivor count,"dose: 50.0 mg/kg/injection, schedule: Q01DX005 (ip), vehicle: saline",2 of 5
same,survivor count,"dose: 100.0 mg/kg/injection, schedule: Q01DX005 (ip), vehicle: saline",0 of 5
same,survivor count,[7],0 of 5
S=C(Nc1ccc(Cl)cc1)Nc1ncccn1,survivor count,[2],6 of 6
same,survivor count,"dose: 200.0 mg/kg/injection, schedule: Q01DX009 (ip), vehicle: Klucel (hydroxypropylcellulose) (HPC)",6 of 6
O=C(NCCN1C(=O)C2C3CCC(O3)C2C1=O)Nc1ccc([N+](=O)[O-])cc1[N+](=O)[O-] (stereo unspecified),survivor count,[6],6 of 6
Clc1ccc(N=NN2CCOC2)cc1,T/C,[6],125 % of control
Cc1ccc(S(=O)(=O)C(CC(=O)CCN(C)C)c2ccccc2)cc1 (stereo unspecified),survivor count,[8],1 of 6
O=P(N1CC1)(N1CC1)N1CC2CCC(CC2)C1,survivor count,"dose: 50.0 mg/kg/injection, schedule: Q01DX009 (ip), vehicle: saline",6 of 6
same,survivor count,"dose: 100.0 mg/kg/injection, schedule: Q04DX003 (ip), vehicle: saline with Tween-80",3 of 6
same,survivor count,[1],1 of 6
same,survivor count,"dose: 400.0 mg/kg/injection, schedule: Q04DX003 (ip), vehicle: saline with Tween-80",0 of 6
C=C1C(=O)C23C(O)CC4C(C)(C)C(OC(C)=O)C(OC(C)=O)CC4(C)C2CCC1C3O (stereo unspecified),survivor count,"dose: 95.0 mg/kg/injection, schedule: Q01DX005 (ip), vehicle: Klucel (hydroxypropylcellulose) (HPC)",1 of 6
CCOC(=O)N(CCCl)N=O,T/C,"dose: 1.25 mg/kg/injection, schedule: Q01DX009 (ip), vehicle: saline with Tween-80",125 and 129 % of control
same,T/C,"dose: 2.5 mg/kg/injection, schedule: Q01DX009 (ip), vehicle: saline with Tween-80",127 % of control
same,T/C,"dose: 5.0 mg/kg/injection, schedule: Q01DX001 (ip), vehicle: saline with Tween-80",128 % of control
same,survivor count,"dose: 5.0 mg/kg/injection, schedule: Q01DX009 (ip), vehicle: saline with Tween-80",6 of 6
same,survivor count,"dose: 10.0 mg/kg/injection, schedule: Q01DX001 (ip), vehicle: saline with Tween-80",6 of 6
same,survivor count,"dose: 10.0 mg/kg/injection, schedule: Q01DX009 (ip), vehicle: saline with Tween-80",6 of 6
same,survivor count,"dose: 20.0 mg/kg/injection, schedule: Q01DX001 (ip), vehicle: saline with Tween-80",1 of 6
same,survivor count,"dose: 40.0 mg/kg/injection, schedule: Q01DX001 (ip), vehicle: saline with Tween-80",0 of 6
CCN(CC)CCCNc1cc(OC)cc2nc3ccccc3nc12,survivor count,[7],0 of 5
NC(=S)c1cccc(-c2ccccn2)n1,survivor count,[3],1 of 6
Cc1c(O)c(=O)ccn1CCO,T/C,"dose: 400.0 mg/kg/injection, schedule: Q01DX005 (ip), vehicle: saline",125 and 136 % of control
C(=N\NC1=NCCN1)/c1c[nH]c2ccccc12,survivor count,"dose: 200.0 mg/kg/injection, schedule: Q01DX005 (ip), vehicle: saline with Tween-80",0 of 6
CCCN=C(N)c1ccc(NC(=O)c2ccc(C(=O)Nc3ccc(C(N)=NCCC)cc3)cc2)cc1,T/C,"dose: 3.13 mg/kg/injection, schedule: Q04DX003 (ip), vehicle: saline with Tween-80",145 % of control
same,survivor count,"dose: 100.0 mg/kg/injection, schedule: Q01DX009 (ip), vehicle: saline with Tween-80",6 of 6
c1ccc2c(c1)c1ccccc1c1n[se]nc21,survivor count,[4],3 of 6
same,survivor count,[5],1 of 6
same,survivor count,[6],1 of 6
